For some assays here: HELM strings list residues between dots; [ac] is acetyl, [am] amide, other brackets name non-standard units.
Assays:
[1] = general procedure: Fmoc solid-phase peptide synthesis; Rink Amide MBHA resin (0.3 mmol/g); CTC resin (0.83 or 0.64 mmol/g); HBTU/DIEA; details: TFA; for isolated mass: scale 2.0 mmol
[2] = general procedure: Fmoc solid-phase peptide synthesis; CTC resin; HBTU/DIEA; details: whole synthesis, scale 2.0 mmol, TFA
[3] = general procedure: Fmoc solid-phase peptide synthesis; 2-CTC resin; HBTU/DIEA; details: whole synthesis, scale 1.50 mmol, TFA
[4] = general procedure: Fmoc solid-phase peptide synthesis; Rink Amide MBHA; HBTU/DIEA; details: whole synthesis, scale 0.1 mmol, TFA
[5] = whole synthesis, scale of the general procedure 0.1 mmol (Rink Amide), 1.0-2.0 mmol (CTC)

Substance: 4-((6S,9S,12S,15S,18S)-1-amino-9-(2-amino-2-oxoethyl)-6-((S)-1-(6-(2, 5-dioxo-2,5-dihydro-1H-pyrrol-1-yl)hexanoyl)-L-seryl)pyrrolidin-2-carboxamido)-1-imino-12-isob utyl-15-isopropyl-7,10,13,16-tetraoxo-18-(3-ureidopropyl)-2,8,11,14,17-pentaazanonadecan-19-ami do)benzyl((1S,9S)
- conjugation yield ([1]; conjugation step): 15.9%

Substance: 4-((6S,12S,15S,18S)-1-amino-6-((S)-1-((6-(2,5-dioxo-2,5-dihydro-1H-py rrol-1-yl)hexyl)-L-histidyl)pyrrolidin-2-carboxamido)-1-imino-12-isobutyl-15-isopropyl-7,10,13,16 -tetraoxo-18-(3-ureidopropyl)-2,8,11,14,17-pentaazanonan-19-amido)benzyl((1S,9S)-9-ethyl)-5-flu
- step yield ([1]; late stage modification step): 24.5%

Substance: (6-(2,5-dioxo-2,5-dihydro-1H-pyrrol-1-yl)hexanoyl)glycyl-L-prolyl-L-alanyl-L-seryl-L-leucine
- crude mass [2]: 1.2 g
- isolated mass ([1]; whole synthesis): 110 mg
- final purity (method not given) [1, 5]: 99.8%

Substance: (6-(2,5-dioxo-2,5-dihydro-1H-pyrrol-1-yl)hexanoyl)glycyl-L-prolyl-L-alanyl-glycyl-L-leucylglycylglycyl-L-phenylalanyl-glycine
- final purity (method not given) [1, 5]: 99.8%

Substance: (6-(2,5-dioxo-2,5-dihydro-1H-pyrrol-1-yl)hexanoyl)glycyl-L-prolyl-L-arginylglycyl-L leucine
- crude mass [2]: 1.4 g
- isolated mass ([1]; whole synthesis): 120 mg
- final purity (method not given) [1, 5]: 99.0%

Substance: (6-(2,5-dioxo-2,5-dihydro-1H-pyrrol-1-yl)hexanoyl)glycyl-L-prolyl-L-arginylglycyl-L-leucylglycylglycyl-L-phenylalanyl-glycine
- final purity (method not given) [1, 5]: 99.1%

Substance: (6-(2,5-dioxo-2,5-dihydro-1H-pyrrol-1-yl)hexanoyl)glycyl-L-prolyl-L-leucylglycyl-L-leucylglycylglycyl-L-phenylalanyl-glycine
- final purity (method not given) [1, 5]: 99.5%

Substance: (6-(2,5-dioxo-2,5-dihydro-1H-pyrrol-1-yl)hexanoyl)glycyl-L-prolyl-L-seryl-L-alanyl-L-leucine
- crude mass [2]: 1.2 g
- isolated mass ([1]; whole synthesis): 90 mg
- final purity (method not given) [1, 5]: 99.6%

Substance: ((S)-2-((S)-1-((6-(2,5-dioxo-2,5-dihydro-1H-pyrrol-1-yl)hexanoyl)-L-seryl)pyrrolidin-2-carboxamido)-5-ureidopentanoyl)-L-seryl-L-leucine
- final purity (method not given) [3]: 99.67%
- isolated yield [3]: 79.3%

Substance: PEPTIDE1{[MC].P.A.S.L.V.[Cit].[PAB-DX8951]}$$$$V2.0
- conjugation yield ([1]; conjugation step): 22.3%

Substance: PEPTIDE1{[MC].P.[Cit].N.L.V.[Cit].[PAB-DX8951]}$$$$V2.0
- conjugation yield ([1]; conjugation step): 4.43%
- final purity (method not given) ([1]; conjugation step): 88.9%

Substance: PEPTIDE1{[ac].P.R.G.L.V.[Cit].[am]}$$$$V2.0
- crude mass [4]: 0.20 g
- isolated mass [4]: 7.4 mg
- final purity (method not given) [1, 5]: 99.5%
- isolated yield [1, 5]: 9.97%

Source: EP4796557A1 (priority 2023, dated 2025)
